Experimental data from patent US11884642B2, “Compounds useful as potassium channel openers” (ACOUSIA THERAPEUTICS GMBH, priority 2017, dated 2024).
Some results were stated once for a whole list of compounds, not compound by compound. Some ranges recur; such a range may be that of the whole group of compounds.

test system: guinea pigs; assay: Ototoxic drug-induced (kanamycin/furosemide) hearing loss model in vivo, CAP threshold recordings of the auditory nerve; design: species or system guinea pig; conditions: in vivo experiments similar to ACOU001
Procedure: The inventive compounds were also tested in vivo. In this context, for repeated recording of the Compound Action Potential (CAP) of the auditory nerve, guinea pigs were bilaterally implanted with a permanent gold electrode at the round window niche. The round window is an opening from the middle ear into the inner ear. The gold electrodes were connected to a miniature plug on the skull. During the experiments, audiograms were determined between 0.5 and 45.6 kHz, at a resolution of 8 steps per octave. An automated threshold search algorithm was applied.
After a baseline audiogram was measured, the animals were pretreated with an inventive compound, as an ion channel activator, via local application to the middle ear. The corresponding solution of the inventive compound was removed after an exposure time, e. g. after 2 hours. Then, the middle ear was rinsed and dried out before CAP recordings were performed to assess threshold shifts.
Then, deafness was induced with the Guinea pigs by local application to the middle ear of a mixture of at least one ototoxic agent and at least one inventive compound. E. g. kanamycin, furosemide or mixtures of these compounds can be used as ototoxic agents.
The resulting CAP response thresholds were compared to ears which were exposed to the ototoxic agents alone. […]
All procedures were performed under anesthesia using a mixture of Fentanyl, Midazolam and Medetomidine. […] Audiograms were determined between 0.5 and 45.6 kHz, at a resolution of 8 steps per octave. […]
After a baseline audiogram was measured, animals were pretreated with an ion channel activator, in this case with ACOU001, via local application to the middle ear. […]
The solution containing ACOU001 was removed after 2 hours and the middle ear rinsed and dried out before CAP recordings were performed to assess threshold shifts. […] After the final measurement on day 21, animals were sacrificed, cochleae fixed by perfusion with 4% paraformaldehyde and prepared for immunohistological analysis to quantify hair cell (HC) protection.

SMILES	hearing protection (reduction of hearing loss)
O=C(NCc1cccc(S(F)(F)(F)(F)F)c1)[C@@H]1C[C@H]2CC[C@@H]1C2 (relative stereo) [(1R,2R,4S)-rel-N-(3-(pentafluorosulfanyl)benzyl)bicyclo[2.2.1]heptane-2-carboxamide]	20-30 dB SPL
O=C(NCc1cccc(S(F)(F)(F)(F)F)c1)[C@H]1C[C@@H]2CC[C@H]1C2 [(1S,2S,4R)—N-(3-(pentafluorosulfanyl)benzyl)bicyclo[2.2.1]heptane-2-carboxamide]	20-30 dB SPL
Cc1cc(N2CCCC2)cc(C)c1NC(=O)Cc1ccc(Cl)s1 [N-(2,6-dimethyl-4-(pyrrolidin-1-yl)phenyl)-2-(5-chloro-thiophene-2-yl)acetamide]	20-30 dB SPL
